Article doi:10.1101/2025.10.15.25338095
These are yes or no findings as the source states them, for the method shown. Binding seen in cells or lysates may run through a third protein. Some results given as binding are weak or reduced against the parent protein; the word gives no strength.

The chains behind the UniProt entries cited, without tags or fusion partners.
UniProt O55143: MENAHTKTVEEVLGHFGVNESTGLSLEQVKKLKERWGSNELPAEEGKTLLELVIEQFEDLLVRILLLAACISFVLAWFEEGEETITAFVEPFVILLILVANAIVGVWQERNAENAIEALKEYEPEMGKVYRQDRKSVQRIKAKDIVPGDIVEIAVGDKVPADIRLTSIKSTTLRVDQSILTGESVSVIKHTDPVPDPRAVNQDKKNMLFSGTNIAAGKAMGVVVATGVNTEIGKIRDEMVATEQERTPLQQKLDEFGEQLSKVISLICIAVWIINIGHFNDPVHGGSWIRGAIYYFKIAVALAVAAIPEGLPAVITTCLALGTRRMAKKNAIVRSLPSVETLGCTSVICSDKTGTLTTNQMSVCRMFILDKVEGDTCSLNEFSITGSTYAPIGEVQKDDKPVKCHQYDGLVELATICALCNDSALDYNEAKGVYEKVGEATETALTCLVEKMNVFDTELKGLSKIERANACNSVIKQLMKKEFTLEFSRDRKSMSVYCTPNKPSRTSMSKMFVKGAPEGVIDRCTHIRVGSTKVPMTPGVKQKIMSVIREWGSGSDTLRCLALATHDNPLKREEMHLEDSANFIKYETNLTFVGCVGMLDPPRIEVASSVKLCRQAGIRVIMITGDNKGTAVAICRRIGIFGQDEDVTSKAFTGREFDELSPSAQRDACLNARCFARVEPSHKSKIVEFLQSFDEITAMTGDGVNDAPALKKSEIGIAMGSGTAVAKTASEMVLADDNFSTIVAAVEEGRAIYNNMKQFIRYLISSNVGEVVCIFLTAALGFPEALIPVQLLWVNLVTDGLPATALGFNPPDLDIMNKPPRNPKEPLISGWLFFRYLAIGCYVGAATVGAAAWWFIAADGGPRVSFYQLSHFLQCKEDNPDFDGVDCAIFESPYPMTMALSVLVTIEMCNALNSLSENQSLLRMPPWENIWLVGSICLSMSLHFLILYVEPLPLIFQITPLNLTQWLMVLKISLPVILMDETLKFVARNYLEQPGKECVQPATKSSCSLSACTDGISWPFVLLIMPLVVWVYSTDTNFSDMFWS

Columns and labels:
[1] = molecular target: TTR-FLAG overexpressed in AML12 cells (not stated (human or mouse cDNA cloned)) (UniProt P07309); assay: co-IP
[2] = molecular target: TTR-FLAG (mouse transthyretin labeled with FLAG) (mouse) (UniProt P07309); assay: co-IP

| binding [1] | binding [2] | Substance |
| --- | --- | --- |
| binds |  | endogenous SERCA2 protein (AML12 cells) (from UniProt O55143 1-1044) |
|  | binds | SERCA2-MYC (mouse sarcoplasmic/endoplasmic reticulum calcium ATPase 2 labeled with MYC) (from UniProt O55143 1-1044) |
